Experimental findings from article PMC7101364, “The biofilm-associated surface protein Esp of Enterococcus faecalis forms amyloid-like fibers” (NPJ Biofilms and Microbiomes, 2020) are described below.

Results are given in words; binding and its absence hold for the method and conditions named.

In assay [1] the target is recombinant Esp_N domain (N-terminal domain of the enterococcal surface protein Esp, amino acids 50-743) (Enterococcus faecalis (strain 11279)) (UniProt Q9Z4N7). Briefly: static light scattering; 0.1 mg/ml rEsp_N, sample reverted from pH 4.2 to pH 7.0 in phosphate-citrate buffer; both purified.
The target is the same in assay [2]. Briefly: condition: only buffer exchanged from pH 4.2 to pH 7; visible aggregation in tubes (reversion assay); aggregates formed 24 h at 37 °C at pH 4.2; buffer exchanged to phosphate-citrate pH 7, overnight at 37 °C with shaking; both purified.

B1: recombinant Esp_N domain (N-terminal domain of the enterococcal surface protein Esp, amino acids 50-743) (domain or fragment)
chain: QMGEGRLANYSASGNTFQENPGYTKNYNFSDLQFNPKAITGDVLQGNTIDFEVYGKHNIAASTANWEIRLQLDERLAQYVEKIQVDPKKGVGNSRRTFVRINDSLGRPTNIWKVNYIRANDGLFAGAETTDTQTAPNGVITFEKNLDEIFKEIGADNLKSDRLMYRIYLVSHQDDDKIVPGIESTGYFLTDQDDFYNKLDVSENNSDQFKHGSVNTKYEEANIQTKDGSGSTGANGAIILDHKLTKEKNFSYSTSAKGTPWYANYKIDERLVPYVSGIQMHMVQADKVAYNVAFESGKKVADLAIERREGHENYGMGSITDNDLTKLIDFANASPRPIVVRYVLQLTKPLDEILEEMKAADKIEENAPFGEDFIFDSWLSDTNKKLIQNTYGTGYYYLQDIDGDGNPDDKEESGDTNPYIGKPELEEVYDVDTTVKGKVFIHELAGTGHKAQLVDKEGTVLAEKTIAPNEKDGAPISDTVEFEFTGVDSSKLIAKDELKIQIVSPGFDKPEEGSTVIKESPKAVDKQTVVVGFKPDAKESIRNNKNLPEDAEYSWKTEPDTSNVTDSTKGIVTVKIGNRTFDVDVEFAVKASQAMENDATYVPITTTPETTIQSGKPTFDKPDVPLANDAFSVLDVYNKDFGNASVDANTGIVTFTPAKGVGESEPITGTIPIKIVYQDGSVGTTDLAVTVSKN
notes: Enterococcal surface protein Esp of Enterococcus faecalis, amplified from strain 11279; N-terminal domain, amino acids 50-743 of the 1873-residue protein; No cleavage of the tag is mentioned; also called N-terminus of Esp; not shown: His tag (from the vector pET46-Ek/LIC)
On to B1, for which the binding entry was “no binding (condition: buffer changed from pH 4.2 to pH 7)” in assay [1] and “no binding” in assay [2].
